The target of test [1] is GST-NEMO D311N (UniProt Q9Y6K9). Nature of the test: pull-down; lysates of MCC13 cells expressing GST, GST-NEMO or GST-NEMO D311N with GFP-tAg incubated with glutathione-agarose beads; blots for GST, GFP, PP4c and PP4R1.
Test [2] has as its target GST-NEMO (wild type, pEBG2T-NEMO, expressed in cells) (UniProt Q9Y6K9). The test is described as above.
For test [3], the target named is FLAG-tagged full-length NEMO (1-419) (UniProt Q9Y6K9). The test can be described thus: co-IP.
The target in test [4] is T1, FLAG-PP4c (expressed in cells) (UniProt P60510).
T1 sequence: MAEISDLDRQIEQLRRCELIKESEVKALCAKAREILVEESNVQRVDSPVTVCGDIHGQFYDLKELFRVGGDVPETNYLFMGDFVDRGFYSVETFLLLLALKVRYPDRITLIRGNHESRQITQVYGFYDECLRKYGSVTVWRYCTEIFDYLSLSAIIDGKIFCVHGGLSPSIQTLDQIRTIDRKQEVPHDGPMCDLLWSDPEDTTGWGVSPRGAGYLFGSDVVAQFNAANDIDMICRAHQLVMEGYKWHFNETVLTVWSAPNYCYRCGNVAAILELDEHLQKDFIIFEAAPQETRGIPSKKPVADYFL
Nature of the test: co-IP.

Amino acid sequences for entries named in this document (tags omitted). A change or cut given only in a name is not applied to a line headed by its entry.
UniProt Q9Y6K9: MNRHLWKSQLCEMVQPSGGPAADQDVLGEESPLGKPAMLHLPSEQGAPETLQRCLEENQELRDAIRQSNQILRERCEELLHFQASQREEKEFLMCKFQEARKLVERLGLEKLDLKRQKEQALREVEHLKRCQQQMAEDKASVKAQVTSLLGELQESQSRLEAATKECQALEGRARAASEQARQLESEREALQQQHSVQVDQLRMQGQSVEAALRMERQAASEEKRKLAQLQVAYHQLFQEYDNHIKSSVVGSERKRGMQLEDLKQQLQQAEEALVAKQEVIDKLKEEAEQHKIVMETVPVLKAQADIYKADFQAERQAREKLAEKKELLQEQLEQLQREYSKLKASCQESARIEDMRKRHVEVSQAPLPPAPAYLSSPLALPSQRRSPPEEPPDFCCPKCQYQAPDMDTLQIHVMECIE

Test [5] addresses GST-NEMO (bacterially expressed, pGEX6P1) (UniProt Q9Y6K9). The test can be described thus: pull-down; bacterially expressed GST fusion on glutathione-agarose beads, incubated 3 hours in lysis buffer with one ITT produced protein alone, western blot; only the target purified.

No constants are given. Whether binding was seen depends on the method and setting. In cells and extracts the contact can be indirect. Some binding calls cover weakened binding; strength is not graded here. For some assays here: Sequences can lack the tags named with a protein.

B1: endogenous PP4R1 (MCC13 cells) (protein, UniProt Q8TF05 1-950)
chain: MADLSLLQEDLQEDADGFGVDDYSSESDVIIIPSALDFVSQDEMLTPLGRLDKYAASENIFNRQMVARSLLDTLREVCDDERDCIAVLERISRLADDSEPTVRAELMEQVPHIALFCQENRPSIPYAFSKFLLPIVVRYLADQNNQVRKTSQAALLALLEQELIERFDVETKVCPVLIELTAPDSNDDVKTEAVAIMCKMAPMVGKDITERLILPRFCEMCCDCRMFHVRKVCAANFGDICSVVGQQATEEMLLPRFFQLCSDNVWGVRKACAECFMAVSCATCQEIRRTKLSALFINLISDPSRWVRQAAFQSLGPFISTFANPSSSGQYFKEESKSSEEMSVENKNRTRDQEAPEDVQVRPEDTPSDLSVSNSSVILENTMEDHAAEASGKPLGEISVPLDSSLLCTLSSESHQEAASNENDKKPGNYKSMLRPEVGTTSQDSALLDQELYNSFHFWRTPLPEIDLDIELEQNSGGKPSPEGPEEESEGPVPSSPNITMATRKELEEMIENLEPHIDDPDVKAQVEVLSAALRASSLDAHEETISIEKRSDLQDELDINELPNCKINQEDSVPLISDAVENMDSTLHYIHSDSDLSNNSSFSPDEERRTKVQDVVPQALLDQYLSMTDPSRAQTVDTEIAKHCAYSLPGVALTLGRQNWHCLRETYETLASDMQWKVRRTLAFSIHELAVILGDQLTAADLVPIFNGFLKDLDEVRIGVLKHLHDFLKLLHIDKRREYLYQLQEFLVTDNSRNWRFRAELAEQLILLLELYSPRDVYDYLRPIALNLCADKVSSVRWISYKLVSEMVKKLHAATPPTFGVDLINELVENFGRCPKWSGRQAFVFVCQTVIEDDCLPMDQFAVHLMPHLLTLANDRVPNVRVLLAKTLRQTLLEKDYFLASASCHQEAVEQTIMALQMDRDSDVKYFASIHPASTKISEDAMSTASSTY
For B1, the binding entry in test [1], in test [2], in test [3] and in test [4] was “binds” in each case.

B2: HA-PP4R1, ITT produced (protein, UniProt Q8TF05 1-950)
chain: MADLSLLQEDLQEDADGFGVDDYSSESDVIIIPSALDFVSQDEMLTPLGRLDKYAASENIFNRQMVARSLLDTLREVCDDERDCIAVLERISRLADDSEPTVRAELMEQVPHIALFCQENRPSIPYAFSKFLLPIVVRYLADQNNQVRKTSQAALLALLEQELIERFDVETKVCPVLIELTAPDSNDDVKTEAVAIMCKMAPMVGKDITERLILPRFCEMCCDCRMFHVRKVCAANFGDICSVVGQQATEEMLLPRFFQLCSDNVWGVRKACAECFMAVSCATCQEIRRTKLSALFINLISDPSRWVRQAAFQSLGPFISTFANPSSSGQYFKEESKSSEEMSVENKNRTRDQEAPEDVQVRPEDTPSDLSVSNSSVILENTMEDHAAEASGKPLGEISVPLDSSLLCTLSSESHQEAASNENDKKPGNYKSMLRPEVGTTSQDSALLDQELYNSFHFWRTPLPEIDLDIELEQNSGGKPSPEGPEEESEGPVPSSPNITMATRKELEEMIENLEPHIDDPDVKAQVEVLSAALRASSLDAHEETISIEKRSDLQDELDINELPNCKINQEDSVPLISDAVENMDSTLHYIHSDSDLSNNSSFSPDEERRTKVQDVVPQALLDQYLSMTDPSRAQTVDTEIAKHCAYSLPGVALTLGRQNWHCLRETYETLASDMQWKVRRTLAFSIHELAVILGDQLTAADLVPIFNGFLKDLDEVRIGVLKHLHDFLKLLHIDKRREYLYQLQEFLVTDNSRNWRFRAELAEQLILLLELYSPRDVYDYLRPIALNLCADKVSSVRWISYKLVSEMVKKLHAATPPTFGVDLINELVENFGRCPKWSGRQAFVFVCQTVIEDDCLPMDQFAVHLMPHLLTLANDRVPNVRVLLAKTLRQTLLEKDYFLASASCHQEAVEQTIMALQMDRDSDVKYFASIHPASTKISEDAMSTASSTY
On to B2, for which the binding entry in test [5] was “binds”.

B3: FLAG-tagged PP4c, ITT produced (enzyme, UniProt P60510 1-307)
chain: MAEISDLDRQIEQLRRCELIKESEVKALCAKAREILVEESNVQRVDSPVTVCGDIHGQFYDLKELFRVGGDVPETNYLFMGDFVDRGFYSVETFLLLLALKVRYPDRITLIRGNHESRQITQVYGFYDECLRKYGSVTVWRYCTEIFDYLSLSAIIDGKIFCVHGGLSPSIQTLDQIRTIDRKQEVPHDGPMCDLLWSDPEDTTGWGVSPRGAGYLFGSDVVAQFNAANDIDMICRAHQLVMEGYKWHFNETVLTVWSAPNYCYRCGNVAAILELDEHLQKDFIIFEAAPQETRGIPSKKPVADYFL
Take B3: the binding result in test [5] was “binds”.

B4: endogenous PP4c (MCC13 cells) (enzyme, UniProt P60510 1-307)
chain: MAEISDLDRQIEQLRRCELIKESEVKALCAKAREILVEESNVQRVDSPVTVCGDIHGQFYDLKELFRVGGDVPETNYLFMGDFVDRGFYSVETFLLLLALKVRYPDRITLIRGNHESRQITQVYGFYDECLRKYGSVTVWRYCTEIFDYLSLSAIIDGKIFCVHGGLSPSIQTLDQIRTIDRKQEVPHDGPMCDLLWSDPEDTTGWGVSPRGAGYLFGSDVVAQFNAANDIDMICRAHQLVMEGYKWHFNETVLTVWSAPNYCYRCGNVAAILELDEHLQKDFIIFEAAPQETRGIPSKKPVADYFL
Turning to B4, the binding result in test [1] and in test [2] was “binds” each time.
